Assay [1] deals with Flag-PKM2 K422R (human) (UniProt P14618). Description: cross-linking; whole-cell lysates (200 μg/mL) cross-linked with 1% formaldehyde for 20 min, PKM2 oligomer states by western blot. Background: A western blot detects proteins with antibodies after separation by electrophoresis.
Assay [2] has as its target Phosphoglycerate mutase 1 (PGAM1), endogenous (human (endogenous in A549)) (UniProt P18669). Description: co-IP; anti-PGAM1 immunoprecipitation from endogenous PKM2-depleted A549 transfected with Flag-PKM2 or its mutants for 48 h, western blot for Flag.
Assay [3] shares this target. Description: co-IP; anti-PGAM1 immunoprecipitation from whole-cell lysates of A549 (also H1299, MCF-7, MDA-MB-231, AGS, Jurkat tumour cells; with or without EGF), western blot; IgG as negative control.
The target in assay [4] is Recombinant His-PGAM1 (human) (UniProt P18669). Description: pull-down; recombinant His-PGAM1 immobilised on Ni-beads, mixed with recombinant GST-PKM2 or GST-ENO1; eluate analysed by western blot; both purified.

Sequences of proteins named here, by UniProt entry; tags and fusion partners are left off. A change or cut given only in a name is not applied to a line headed by its entry. A line that says so, or that is headed by a name, gives the form on record, which may keep a tag or linker.
UniProt P14618: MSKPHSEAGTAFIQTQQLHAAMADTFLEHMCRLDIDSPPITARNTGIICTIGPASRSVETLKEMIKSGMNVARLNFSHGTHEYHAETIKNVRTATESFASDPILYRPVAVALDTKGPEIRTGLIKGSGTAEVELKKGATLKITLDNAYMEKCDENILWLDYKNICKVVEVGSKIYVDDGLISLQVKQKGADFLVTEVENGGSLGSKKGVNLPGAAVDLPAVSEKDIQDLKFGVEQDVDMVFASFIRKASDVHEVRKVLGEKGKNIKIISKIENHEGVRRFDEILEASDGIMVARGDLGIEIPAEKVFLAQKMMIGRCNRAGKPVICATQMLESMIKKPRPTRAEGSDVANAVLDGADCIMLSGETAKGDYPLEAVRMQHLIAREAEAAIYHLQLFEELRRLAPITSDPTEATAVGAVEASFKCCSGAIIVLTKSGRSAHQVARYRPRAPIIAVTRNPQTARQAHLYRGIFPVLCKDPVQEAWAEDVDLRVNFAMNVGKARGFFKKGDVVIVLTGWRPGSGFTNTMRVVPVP
Pyruvate kinase M1 (PKM1), endogenous (P14618-2, form named): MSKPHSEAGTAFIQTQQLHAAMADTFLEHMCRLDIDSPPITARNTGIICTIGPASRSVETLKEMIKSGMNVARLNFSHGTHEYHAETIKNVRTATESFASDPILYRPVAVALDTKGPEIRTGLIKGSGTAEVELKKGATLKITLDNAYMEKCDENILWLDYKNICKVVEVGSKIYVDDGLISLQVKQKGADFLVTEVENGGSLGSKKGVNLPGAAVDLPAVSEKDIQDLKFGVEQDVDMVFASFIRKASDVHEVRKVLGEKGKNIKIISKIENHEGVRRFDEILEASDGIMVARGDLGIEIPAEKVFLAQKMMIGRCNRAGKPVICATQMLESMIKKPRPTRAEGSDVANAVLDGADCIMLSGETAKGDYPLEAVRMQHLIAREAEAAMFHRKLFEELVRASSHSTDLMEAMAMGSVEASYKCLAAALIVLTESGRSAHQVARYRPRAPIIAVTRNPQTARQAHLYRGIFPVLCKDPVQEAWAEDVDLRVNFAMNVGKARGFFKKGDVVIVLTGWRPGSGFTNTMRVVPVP
UniProt P18669: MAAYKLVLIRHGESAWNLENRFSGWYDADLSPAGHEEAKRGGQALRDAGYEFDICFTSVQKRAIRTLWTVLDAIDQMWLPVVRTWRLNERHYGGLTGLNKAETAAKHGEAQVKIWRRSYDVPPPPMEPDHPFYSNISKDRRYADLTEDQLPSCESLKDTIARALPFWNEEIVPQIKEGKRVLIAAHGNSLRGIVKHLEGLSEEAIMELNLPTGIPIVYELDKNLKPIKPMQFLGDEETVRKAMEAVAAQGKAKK
UniProt P15531: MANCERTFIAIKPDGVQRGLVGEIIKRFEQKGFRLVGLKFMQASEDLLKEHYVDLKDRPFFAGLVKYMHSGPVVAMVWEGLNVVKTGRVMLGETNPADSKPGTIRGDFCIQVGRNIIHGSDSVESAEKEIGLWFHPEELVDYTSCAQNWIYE
UniProt P22392: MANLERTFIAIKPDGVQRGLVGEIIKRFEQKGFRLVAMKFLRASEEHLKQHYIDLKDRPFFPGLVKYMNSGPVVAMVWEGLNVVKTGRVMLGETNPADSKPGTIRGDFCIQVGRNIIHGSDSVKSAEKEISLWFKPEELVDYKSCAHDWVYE
UniProt P06733: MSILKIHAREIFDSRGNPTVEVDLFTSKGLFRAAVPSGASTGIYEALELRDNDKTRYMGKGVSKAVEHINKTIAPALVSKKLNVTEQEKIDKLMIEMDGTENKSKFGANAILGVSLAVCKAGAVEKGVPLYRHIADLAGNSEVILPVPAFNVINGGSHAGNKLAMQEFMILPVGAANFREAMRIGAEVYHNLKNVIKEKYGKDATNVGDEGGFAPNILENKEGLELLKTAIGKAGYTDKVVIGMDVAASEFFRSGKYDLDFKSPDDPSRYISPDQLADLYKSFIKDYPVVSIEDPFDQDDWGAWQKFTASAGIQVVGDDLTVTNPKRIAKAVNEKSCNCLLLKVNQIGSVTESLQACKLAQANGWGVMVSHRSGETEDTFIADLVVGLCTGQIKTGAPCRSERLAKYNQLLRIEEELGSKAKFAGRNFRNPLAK

Here are results for ten substances from paper PMC11183095.

Results are given in words; binding and its absence hold for the method and conditions named. For some of these results: Binding seen in cells or lysates may run through a third protein. Some binding calls cover weakened binding; strength is not graded here.

As to “Flag-PKM2 K422R (from UniProt P14618 1-531) (enzyme)”, the binding entry in assay [1] is reported as “binds”. Turning to “Flag-PKM2 R399E (from UniProt P14618 1-531) (enzyme)”, in assay [2], the binding entry is on record as “binds”.

Take “Flag-PKM2 R399E/K270M (from UniProt P14618 1-531) (enzyme)”: the binding result in assay [2] is recorded as “binds”.

With “Flag-PKM2 Y105E (from UniProt P14618 1-531) (enzyme)”, the binding result in assay [2] was “binds”. Still for that read-out and setting: the same measure for “Flag-PKM2 Y105E/K270M (from UniProt P14618 1-531) (enzyme)”: “binds”; for “Flag-PKM2 wild type (from UniProt P14618 1-531) (enzyme)”: “binds”. For the substance “Nucleoside diphosphate kinase 1 (NME1), endogenous (from UniProt P15531 1-152) (enzyme)”, in assay [3], the binding entry is “no binding”. Turning to “Nucleoside diphosphate kinase 2 (NME2), endogenous (from UniProt P22392 1-152) (enzyme)”, the binding entry in assay [3] was “no binding”. On the same count and under the same terms, the entry for “Pyruvate kinase M1 (PKM1), endogenous (from UniProt P14618-2 1-531) (enzyme)” is “no binding”.

For the substance “Recombinant GST-ENO1 (from UniProt P06733 1-434) (enzyme)”, in assay [4], the binding result is listed as “no binding”.
